{"source": "the supplement of paper PMC8728848", "assay_in_all_cases": "glycan array binding signal (z-score within array); higher = stronger binding", "details_in_all_cases": "glycan notation: IUPAC condensed, linker removed", "key": {"[1]": {"molecular_target": "Neu5Ac(a2-6)GlcNAc(b1-4)GlcNAc(b1-4)GlcNAc", "in_short": "(§1)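 Negative Z-scores can be read as non-binding. The Z-score is calculated within each array and then averaged across arrays of one protein sequence at different concentrations or buffers and across linkers. Arrays, 3228 in all, were curated from the Consortium for Functional Glycomics database and kept only where the protein sequence was available.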"}, "[2]": {"molecular_target": "Neu5Ac(a2-8)Neu5Ac", "in_short": "as §1"}, "[3]": {"molecular_target": "Neu5Ac(a2-8)Neu5Ac(a2-3)Gal(b1-3)GalNAc(b1-4)[Neu5Ac(a2-3)]Gal(b1-4)Glc", "in_short": "as §1"}, "[4]": {"molecular_target": "Neu5Ac(a2-8)Neu5Ac(a2-3)Gal(b1-3)GalNAc(b1-4)[Neu5Ac(a2-8)Neu5Ac(a2-3)]Gal(b1-4)Glc", "in_short": "as §1"}, "[5]": {"molecular_target": "Neu5Ac(a2-8)Neu5Ac(a2-3)Gal(b1-4)Glc", "in_short": "as §1"}, "[6]": {"molecular_target": "Neu5Ac(a2-8)Neu5Ac(a2-3)Gal(b1-4)GlcNAc", "in_short": "as §1"}, "[7]": {"molecular_target": "Neu5Ac(a2-8)Neu5Ac(a2-3)[Gal(b1-3)GalNAc(b1-4)]Gal(b1-4)Glc", "in_short": "as §1"}, "[8]": {"molecular_target": "Neu5Ac(a2-8)Neu5Ac(a2-3)[GalNAc(b1-4)]Gal(b1-4)Glc", "in_short": "as §1"}, "[9]": {"molecular_target": "Neu5Ac(a2-8)Neu5Ac(a2-8)Neu5Ac", "in_short": "as §1"}, "[10]": {"molecular_target": "Neu5Ac(a2-8)Neu5Ac(a2-8)Neu5Ac(a2-3)Gal(b1-4)Glc", "in_short": "as §1"}, "[11]": {"molecular_target": "Neu5Ac(a2-8)Neu5Ac(a2-8)Neu5Ac(a2-3)[Gal(b1-3)GalNAc(b1-4)]Gal(b1-4)Glc", "in_short": "as §1"}, "[12]": {"molecular_target": "Neu5Ac(a2-8)Neu5Ac(a2-8)Neu5Ac(a2-3)[GalNAc(b1-4)]Gal(b1-4)Glc", "in_short": "as §1"}, "[13]": {"molecular_target": "Neu5Ac(a2-8)Neu5Ac(a2-8)Neu5Ac(a2-8)Neu5Ac(a2-3)[GalNAc(b1-4)]Gal(b1-4)Glc", "in_short": "as §1"}, "[14]": {"molecular_target": "Neu5Ac(a2-8)Neu5Gc(a2-3)Gal(b1-4)GlcNAc", "in_short": "as §1"}, "[15]": {"molecular_target": "Neu5Ac(b2-6)Gal(b1-4)GlcNAc", "in_short": "as §1"}, "[16]": {"molecular_target": "Neu5Ac(b2-6)GalNAc", "in_short": "as §1"}, "[17]": {"molecular_target": "Neu5Ac9Ac(a2-3)Gal(b1-3)GlcNAc", "in_short": "as §1"}, "[18]": {"molecular_target": "Neu5Ac9Ac(a2-3)Gal(b1-4)GlcNAc", "in_short": "as §1"}, "[19]": {"molecular_target": "Neu5Ac9Ac(a2-6)Gal(b1-4)GlcNAc", "in_short": "as §1"}, "[20]": {"molecular_target": "Neu5Gc(a2-3)Gal(b1-3)GlcNAc", "in_short": "as §1"}, "[21]": {"molecular_target": "Neu5Gc(a2-3)Gal(b1-3)[Fuc(a1-4)]GlcNAc", "in_short": "as §1"}, "[22]": {"molecular_target": "Neu5Gc(a2-3)Gal(b1-4)Glc", "in_short": "as §1"}, "[23]": {"molecular_target": "Neu5Gc(a2-3)Gal(b1-4)GlcNAc", "in_short": "as §1"}, "[24]": {"molecular_target": "Neu5Gc(a2-3)Gal(b1-4)GlcNAc(b1-3)Gal(b1-4)GlcNAc(b1-2)Man(a1-3)[Neu5Gc(a2-3)Gal(b1-4)GlcNAc(b1-3)Gal(b1-4)GlcNAc(b1-2)Man(a1-6)]Man(b1-4)GlcNAc(b1-4)GlcNAc", "in_short": "as §1"}, "[25]": {"molecular_target": "Neu5Gc(a2-3)Gal(b1-4)[Fuc(a1-3)]GlcNAc", "in_short": "as §1"}, "[26]": {"molecular_target": "Neu5Gc(a2-6)Gal(b1-4)GlcNAc", "in_short": "as §1"}, "[27]": {"molecular_target": "Neu5Gc(a2-6)GalNAc", "in_short": "as §1"}, "[28]": {"molecular_target": "Neu5Gc(a2-8)Neu5Ac(a2-3)Gal(b1-4)GlcNAc", "in_short": "as §1"}, "[29]": {"molecular_target": "Neu5Gc(a2-8)Neu5Gc(a2-3)Gal(b1-4)GlcNAc", "in_short": "as §1"}, "[30]": {"molecular_target": "Neu5Gc(a2-8)Neu5Gc(a2-3)Gal(b1-4)GlcNAc(b1-3)Gal(b1-4)GlcNAc", "in_short": "as §1"}, "[31]": {"molecular_target": "Neu5Gc(a2-8)Neu5Gc(a2-6)Gal(b1-4)GlcNAc", "in_short": "as §1"}, "[32]": {"molecular_target": "Neu5Gc(b2-6)Gal(b1-4)GlcNAc", "in_short": "as §1"}}, "note": "The other results are listed elsewhere or left out."}
{"binder": "CcfD (Bacteroides fragilis), Q5L9G4 (protein) MKKQNSIYTLLIALLCFVSSCDYLGVSDQLAGGLQNTEQVFDNVSYTKRWYANVFAGIPDYSGINSVNVGAFKNPWTGMCDELVVGYGNSSKYNNSDRNAANMGFHRYGDCYKYIRQANIFLQKAHPIMTTGTQGDQLLEDELTQMKANVRFMRAFYHYLLFEQYGPIILVKDKIYNATEDQDVPRNTVDEVIEYIDSELTAVASELTQEPIFEDKDYRAWPTKGVALAVRAKLWLYAASPLLNGGYREALSVTNPDGTRLFPDYDAGKWEKALAACKDFIDYAEAGRYELYKEYKDDNGAVIDPDKSVYNLFQKYTHEIIWATANNDWGGMNGDAFDRRIAPRCEKNGLGSTGVTQELVDAFYMKDGFPVSATAYLPQSTLYQEEGYGTYKDQNDNFSKKYTNVTVSNRYLNREPRFYNTVFFNGRQWPVSCNQVLFYNGGNSGVQEGQATLTGYMLFKRFNRSVSLTNPGVASQFRPSIIFRLADFYLMYAEAANEVNPNDARVLKYLNLVRERAGLPDIETLNPAIRGNQELQRAAIQRERQIELATEGQRYFDVRRWMIADKNGEGRQNGYVHGMNVRGESNDKEDFNRIVEASQIVFNRKMYLYPMPDSEMRKTKNLVQNPGW", "values": [{"measurement": "glycan array binding signal (z-score)", "setting": "[1]", "value": -0.443}, {"measurement": "glycan array binding signal (z-score)", "setting": "[2]", "value": -0.378}, {"measurement": "glycan array binding signal (z-score)", "setting": "[3]", "value": 1.8}, {"measurement": "glycan array binding signal (z-score)", "setting": "[4]", "value": 0.686}, {"measurement": "glycan array binding signal (z-score)", "setting": "[5]", "value": -1.1}, {"measurement": "glycan array binding signal (z-score)", "setting": "[6]", "value": 0.456}, {"measurement": "glycan array binding signal (z-score)", "setting": "[7]", "value": -1.07}, {"measurement": "glycan array binding signal (z-score)", "setting": "[8]", "value": -1.19}, {"measurement": "glycan array binding signal (z-score)", "setting": "[9]", "value": 0.082}, {"measurement": "glycan array binding signal (z-score)", "setting": "[10]", "value": -1.21}, {"measurement": "glycan array binding signal (z-score)", "setting": "[11]", "value": -1.02}, {"measurement": "glycan array binding signal (z-score)", "setting": "[12]", "value": -0.936}, {"measurement": "glycan array binding signal (z-score)", "setting": "[13]", "value": 0.01}, {"measurement": "glycan array binding signal (z-score)", "setting": "[14]", "value": -0.476}, {"measurement": "glycan array binding signal (z-score)", "setting": "[15]", "value": -0.43}, {"measurement": "glycan array binding signal (z-score)", "setting": "[16]", "value": -0.818}, {"measurement": "glycan array binding signal (z-score)", "setting": "[17]", "value": -0.542}, {"measurement": "glycan array binding signal (z-score)", "setting": "[18]", "value": -0.568}, {"measurement": "glycan array binding signal (z-score)", "setting": "[19]", "value": 0.227}, {"measurement": "glycan array binding signal (z-score)", "setting": "[20]", "value": -0.456}, {"measurement": "glycan array binding signal (z-score)", "setting": "[21]", "value": -0.594}, {"measurement": "glycan array binding signal (z-score)", "setting": "[22]", "value": -0.404}, {"measurement": "glycan array binding signal (z-score)", "setting": "[23]", "value": -0.752}, {"measurement": "glycan array binding signal (z-score)", "setting": "[24]", "value": 2.17}, {"measurement": "glycan array binding signal (z-score)", "setting": "[25]", "value": -0.233}, {"measurement": "glycan array binding signal (z-score)", "setting": "[26]", "value": 1.34}, {"measurement": "glycan array binding signal (z-score)", "setting": "[27]", "value": -0.089}, {"measurement": "glycan array binding signal (z-score)", "setting": "[28]", "value": -1.27}, {"measurement": "glycan array binding signal (z-score)", "setting": "[29]", "value": -1.19}, {"measurement": "glycan array binding signal (z-score)", "setting": "[30]", "value": -0.673}, {"measurement": "glycan array binding signal (z-score)", "setting": "[31]", "value": -1.46}, {"measurement": "glycan array binding signal (z-score)", "setting": "[32]", "value": -0.043}]}
